Source: the supplement of paper PMC10849652
The other results are listed elsewhere or left out.

Sequences of proteins named here, by UniProt entry; tags and fusion partners are left off. A change or cut given only in a name is not applied to a line headed by its entry.
UniProt Q96MF7: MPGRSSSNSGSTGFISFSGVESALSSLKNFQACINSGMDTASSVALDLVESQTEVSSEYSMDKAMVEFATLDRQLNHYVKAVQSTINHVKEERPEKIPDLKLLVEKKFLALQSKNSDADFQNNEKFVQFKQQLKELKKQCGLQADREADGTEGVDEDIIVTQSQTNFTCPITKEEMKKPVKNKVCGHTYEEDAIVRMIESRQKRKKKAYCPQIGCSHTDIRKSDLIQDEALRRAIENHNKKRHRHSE
UniProt P80303: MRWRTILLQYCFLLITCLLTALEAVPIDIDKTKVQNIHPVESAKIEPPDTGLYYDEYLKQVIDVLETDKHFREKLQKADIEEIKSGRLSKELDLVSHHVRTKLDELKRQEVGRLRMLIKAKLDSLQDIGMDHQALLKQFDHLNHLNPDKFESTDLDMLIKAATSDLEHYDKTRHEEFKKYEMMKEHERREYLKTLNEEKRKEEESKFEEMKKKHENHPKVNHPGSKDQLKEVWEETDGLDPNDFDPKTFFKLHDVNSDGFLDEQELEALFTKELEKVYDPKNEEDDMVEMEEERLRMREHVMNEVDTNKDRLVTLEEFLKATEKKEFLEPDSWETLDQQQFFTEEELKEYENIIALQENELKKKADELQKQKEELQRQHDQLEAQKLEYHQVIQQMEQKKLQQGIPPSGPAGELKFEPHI
UniProt P15559, whole entry, looked up: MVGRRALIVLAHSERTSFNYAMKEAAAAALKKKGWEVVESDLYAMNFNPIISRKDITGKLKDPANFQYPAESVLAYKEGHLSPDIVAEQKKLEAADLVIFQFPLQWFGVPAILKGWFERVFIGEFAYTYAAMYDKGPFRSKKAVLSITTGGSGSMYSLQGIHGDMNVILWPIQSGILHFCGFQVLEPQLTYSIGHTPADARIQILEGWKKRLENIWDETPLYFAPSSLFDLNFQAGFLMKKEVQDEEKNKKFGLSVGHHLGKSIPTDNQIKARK

Columns and labels:
Experiment in all cases: log2 fold change, soluble protein after heating vs DMSO (PISA); higher = thermal stabilisation; K562 lysate, 10 uM; active = over 0.2 and 3.5 SD of the protein, either way, in both replicates (recomputed)
[1] = compound: CS(=O)(=O)CCNCc1ccc(-c2ccc3ncnc(Nc4ccc(OCc5cccc(F)c5)c(Cl)c4)c3c2)o1 [lapatinib]
In short: (§1)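 The values are log-two fold changes in thermal stability compared with solvent controls and come from duplicates. They were obtained by TMTpro 16plex LC-MS/MS, with channel sums equalised, on the supernatant after 21,000xg for 90 min. That supernatant came from crude K562 extract at 1 mg/mL protein treated with 10 μM compound for 30 min, heated for 3 min across 48°C-58°C, pooled and brought to 0.5% NP-40 at 4°C.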

[2] = compound: CS(=O)(=O)N1CCN(Cc2cc3nc(-c4cccc5[nH]ncc45)nc(N4CCOCC4)c3s2)CC1 [pictilisib]
In short: as §1

[3] = compound: C[C@@H](Oc1cc(-c2cnn(C3CCNCC3)c2)cnc1N)c1c(Cl)ccc(F)c1Cl [crizotinib]
In short: as §1

[4] = compound: C[C@H](C1=CC=C(C=C1)C(=O)NC2=C3C=CNC3=NC=C2)N
In short: as §1

[5] = compound: C[C@H](Nc1ncnc2nc[nH]c12)c1cc2cccc(Cl)c2c(=O)n1-c1ccccc1 [duvelisib]
In short: as §1

[6] = compound: Cc1cc(Nc2cc(CN3CCOCC3)c3nc(C)c(Cc4ccc(Cl)cc4F)n3n2)n[nH]1 [gandotinib]
In short: as §1

[7] = compound: Cc1cc(Nc2cc(N3CCN(C)CC3)nc(Sc3ccc(NC(=O)C4CC4)cc3)n2)n[nH]1 [tozasertib]
In short: as §1

[8] = compound: Cc1ccc(-n2nc(C(C)(C)C)cc2NC(=O)Nc2ccc(OCCN3CCOCC3)c3ccccc23)cc1 [doramapimod]
In short: as §1

[9] = compound: Cc1ccc(NC(=O)c2ccc(CN3CC[C@H](N(C)C)C3)c(C(F)(F)F)c2)cc1Nc1nccc(-c2cncnc2)n1 [bafetinib]
In short: as §1

[10] = compound: Cc1cccc(CC(=O)N2CCc3c2ccc(-c2cn(C)c4ncnc(N)c24)c3F)n1
In short: as §1

[11] = compound: Cc1cn(-c2cc(NC(=O)c3ccc(C)c(Nc4nccc(-c5cccnc5)n4)c3)cc(C(F)(F)F)c2)cn1 [nilotinib]
In short: as §1

[12] = compound: Cc1nc(Nc2n[nH]c3c2CN(C(=O)N[C@H](CN(C)C)c2ccccc2)C3(C)C)c2sccc2n1
In short: as §1

[13] = compound: Cc1nc(Nc2ncc(C(=O)Nc3c(C)cccc3Cl)s2)cc(N2CCN(CCO)CC2)n1 [dasatinib]
In short: as §1

[14] = compound: Cc1ncc(-c2ccnc(Nc3ccc(S(C)(=O)=O)cc3)n2)n1C(C)C
In short: as §1

[15] = compound: Cn1cc(-c2ccc3c(c2)CCN3C(=O)Cc2cccc(C(F)(F)F)c2)c2c(N)ncnc21
In short: as §1

[16] = compound: Cn1cc(CNCC2CCN(c3ncc(C(=O)NO)cn3)CC2)c2ccccc21 [quisinostat]
In short: as §1

[17] = compound: Cn1cncc1[C@@](N)(c1ccc(Cl)cc1)c1ccc2c(c1)c(-c1cccc(Cl)c1)cc(=O)n2C [tipifarnib]
In short: as §1

[18] = compound: NC(=O)Nc1cc(-c2cccc(F)c2)sc1C(=O)N[C@H]1CCCNC1
In short: as §1

[19] = compound: NC(=O)c1cnc(N[C@@H]2CCCC[C@@H]2N)nc1Nc1cccc(-n2nccn2)c1
In short: as §1

[20] = compound: NC1(c2ccc(-c3nc4ccn5c(=O)[nH]nc5c4cc3-c3ccccc3)cc2)CCC1
In short: as §1

Measured: log2 fold change

NSMCE2 (UniProt Q96MF7)
inactive: [1] -0.003 | [2] 0.013 | [3] 0.043 | [4] 0.055 | [5] -0.026 | [6] 0.014 | [7] 0.066 | [8] 0.009 | [9] -0.151 | [10] -0.137 | [11] 0.098 | [12] 0.04 | [13] -0.003 | [14] -0.076 | [15] 0.038 | [16] 0.035 | [17] 0.035 | [18] -0.024 | [19] 0.041 | [20] 0.149

NUCB2 (UniProt P80303)
active: [4] 0.253
inactive: [1] -0.006 | [2] -0.006 | [3] 0.041 | [5] 0.008 | [6] -0.044 | [7] 0.003 | [8] -0.024 | [9] -0.022 | [10] -0.126 | [11] -0.016 | [12] 0.015 | [13] 0.007 | [14] -0.019 | [15] -0.009 | [16] 0.016 | [17] 0.011 | [18] -0.003 | [19] -0.001 | [20] 0.014

NOC2L (UniProt Q9Y3T9)
inactive: [1] -0.049 | [2] -0.012 | [3] -0.077 | [4] -0.004 | [5] -0.074 | [6] -0.037 | [7] -0.015 | [8] 0.03 | [9] -0.137 | [10] 0.09 | [11] 0.027 | [12] 0.022 | [13] -0.03 | [14] -0.046 | [15] -0.052 | [16] -0.082 | [17] -0.087 | [18] 0.058 | [19] 0.014 | [20] -0.019

NQO1 (UniProt P15559)
active: [8] -0.333 | [10] 0.262
inactive: [1] -0.055 | [2] -0.048 | [3] -0.04 | [4] -0.074 | [5] 0.012 | [6] 0.009 | [7] 0.022 | [9] -0.023 | [11] 0.051 | [12] -0.031 | [13] 0.244 | [14] 0.022 | [15] -0.104 | [16] 0.021 | [17] 0.042 | [18] 0.042 | [19] -0.027 | [20] 0.056
